Assay results as given in the supplement of paper PMC6078165.
± gives the standard deviation of the averaged measurements. Values are relative to the signal before dosing, not to a vehicle control; the signal also falls without drug.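 Labels refer to human fibroblasts, largely primary: uterine (C12385, HUF), lung (H6013), bone (Hs27A), adrenal (HADF), skin (WS1), plus mammary HMF and breast cancer-associated Hs343T. Cancer lines are basal-like or mesenchymal-like triple-negative breast cancer. The paper counts as hits responses shifting over 3x the replicate standard deviation. The tissue of the other fibroblasts is not given here.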

Tested on: MDAMB231
Assay: relative JC-1 red fluorescence (viability) vs pre-drug, coculture with fibroblast (fraction); higher = more viable cancer cells
Settings: 0.1 µM
Protocol: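 JC-1 labelled TNBC cells cocultured 1:1 (1,500 cells each) with CellTrace Violet stained primary or stromal fibroblasts in 384-well plates in FluoroBrite medium, treated with one of 42 anticancer drugs at 0.1, 1, 10 or 100 uM. JC-1 red fluorescence (mitochondrial integrity in cancer cells only) was read by plate reader every 8 h for 72 h. Values are normalised to each well's pre-drug value. The stock of one drug was tenfold lower, so its dose labels may be too high.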

N#Cc1ccc(C(c2ccc(C#N)cc2)n2cncn2)cc1 [Letrozole]
relative JC-1 red fluorescence
Settings	8 h	16 h	24 h	32 h	40 h	48 h	56 h	64 h	72 h
coculture fibroblast: C12385	0.764 ± 0.016	0.7099 ± 0.0068	0.622 ± 0.021	0.585 ± 0.0099	0.522 ± 0.0085	0.491 ± 0.0082	0.443 ± 0.015	0.437 ± 0.006	0.4097 ± 0.0021
coculture fibroblast: H6013	0.866 ± 0.024	0.811 ± 0.025	0.781 ± 0.02	0.77 ± 0.028	0.724 ± 0.013	0.6873 ± 0.0019	0.6679 ± 0.0048	0.6442 ± 0.0018	0.609 ± 0.014
coculture fibroblast: H6019	0.801 ± 0.02	0.777 ± 0.046	0.733 ± 0.015	0.708 ± 0.0084	0.668 ± 0.012	0.636 ± 0.044	0.592 ± 0.058	0.565 ± 0.07	0.524 ± 0.086
coculture fibroblast: H6076	0.82 ± 0.096	0.904 ± 0.096	0.871 ± 0.052	0.846 ± 0.015	0.809 ± 0.0092	0.778 ± 0.029	0.742 ± 0.057	0.715 ± 0.069	0.698 ± 0.093
coculture fibroblast: H6231	0.939 ± 0.014	0.8299 ± 0.0035	0.743 ± 0.043	0.687 ± 0.04	0.635 ± 0.038	0.593 ± 0.03	0.549 ± 0.029	0.527 ± 0.027	0.501 ± 0.027
coculture fibroblast: HADF	0.884 ± 0.025	0.817 ± 0.037	0.774 ± 0.027	0.7365 ± 0.0068	0.695 ± 0.007	0.652 ± 0.029	0.634 ± 0.021	0.617 ± 0.027	0.569 ± 0.033
coculture fibroblast: HCFa	0.8879 ± 0.008	0.806 ± 0.0085	0.749 ± 0.0082	0.706 ± 0.008	0.6425 ± 0.0022	0.5884 ± 0.002	0.56 ± 0.012	0.524 ± 0.0096	0.4731 ± 0.0023
coculture fibroblast: HCPF	0.895 ± 0.075	0.792 ± 0.081	0.74 ± 0.088	0.714 ± 0.088	0.657 ± 0.079	0.617 ± 0.07	0.58 ± 0.069	0.547 ± 0.061	0.528 ± 0.061
coculture fibroblast: HHSteC	0.8708 ± 0.0056	0.806 ± 0.02	0.752 ± 0.021	0.6873 ± 0.0061	0.64 ± 0.023	0.604 ± 0.019	0.56 ± 0.025	0.538 ± 0.025	0.497 ± 0.031
coculture fibroblast: HMF	0.861 ± 0.056	0.752 ± 0.043	0.687 ± 0.028	0.646 ± 0.024	0.596 ± 0.022	0.548 ± 0.021	0.507 ± 0.0096	0.489 ± 0.0071	0.4652 ± 0.0028
coculture fibroblast: HPFa	0.942 ± 0.029	0.871 ± 0.022	0.8229 ± 0.0059	0.762 ± 0.033	0.723 ± 0.039	0.682 ± 0.055	0.624 ± 0.044	0.589 ± 0.044	0.53 ± 0.05
coculture fibroblast: HUF	0.8818 ± 0.0033	0.738 ± 0.016	0.755 ± 0.038	0.64 ± 0.016	0.578 ± 0.017	0.555 ± 0.019	0.502 ± 0.029	0.499 ± 0.022	0.472 ± 0.027
coculture fibroblast: Hs5	0.887 ± 0.011	0.8025 ± 0.0052	0.721 ± 0.027	0.66 ± 0.04	0.606 ± 0.042	0.555 ± 0.04	0.503 ± 0.05	0.472 ± 0.056	0.434 ± 0.052
coculture fibroblast: Hs27A	0.8766 ± 0.0087	0.7919 ± 0.0025	0.741 ± 0.011	0.717 ± 0.028	0.661 ± 0.026	0.588 ± 0.035	0.592 ± 0.033	0.572 ± 0.032	0.522 ± 0.033
coculture fibroblast: Hs343T	0.859 ± 0.036	0.721 ± 0.016	0.672 ± 0.019	0.634 ± 0.027	0.582 ± 0.047	0.537 ± 0.047	0.494 ± 0.051	0.481 ± 0.058	0.459 ± 0.069
coculture fibroblast: WS1	0.789 ± 0.018	0.727 ± 0.05	0.657 ± 0.061	0.614 ± 0.076	0.559 ± 0.077	0.534 ± 0.078	0.492 ± 0.075	0.474 ± 0.07	0.444 ± 0.068
